Screen size: about 580,000 compounds; about 6,100 (1.1%) were called active. The inconclusive results got no clear call from the source; some entries with a clear call stand among them for comparison. The call rests on the fitted dose curve; in most records, active means well fitted inhibition curve with a large enough effect; inconclusive means small, poorly fitted or top-dose-only effect, or another doubt; inactive means no such curve, though single readings can be large or run the other way. A potency beside an inconclusive call is a rough fit, not a confirmed value.
target: Polyunsaturated fatty acid lipoxygenase ALOX12 (Homo sapiens) (UniProt P18054); test: Primary qHTS assay for inhibitors of human arachidonate 12S-lipoxygenase (ALOX12): Round 2; conditions: purified 12hLO, xylenol orange hydroperoxide absorbance; activity change, negative = inhibition: at 108 µM (top of the series) unless noted
Procedure, shortened: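 Hydroperoxide product was detected by ferrous iron/xylenol orange as the 573 to 405 nm absorbance ratio. Arachidonic acid at 40 uM (final) was turned over for 30 min at room temperature by 150 nM human 12hLO, pH 7.0 Hepes buffer, after 15 min compound preincubation.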
On the % scale 0 is the no-effect control and ±100 the full control effect; potency means the concentration at half of the fitted maximal effect.

Amino acid sequences for entries named in this document (tags omitted). A change or cut given only in a name is not applied to a line headed by its entry.
UniProt P18054: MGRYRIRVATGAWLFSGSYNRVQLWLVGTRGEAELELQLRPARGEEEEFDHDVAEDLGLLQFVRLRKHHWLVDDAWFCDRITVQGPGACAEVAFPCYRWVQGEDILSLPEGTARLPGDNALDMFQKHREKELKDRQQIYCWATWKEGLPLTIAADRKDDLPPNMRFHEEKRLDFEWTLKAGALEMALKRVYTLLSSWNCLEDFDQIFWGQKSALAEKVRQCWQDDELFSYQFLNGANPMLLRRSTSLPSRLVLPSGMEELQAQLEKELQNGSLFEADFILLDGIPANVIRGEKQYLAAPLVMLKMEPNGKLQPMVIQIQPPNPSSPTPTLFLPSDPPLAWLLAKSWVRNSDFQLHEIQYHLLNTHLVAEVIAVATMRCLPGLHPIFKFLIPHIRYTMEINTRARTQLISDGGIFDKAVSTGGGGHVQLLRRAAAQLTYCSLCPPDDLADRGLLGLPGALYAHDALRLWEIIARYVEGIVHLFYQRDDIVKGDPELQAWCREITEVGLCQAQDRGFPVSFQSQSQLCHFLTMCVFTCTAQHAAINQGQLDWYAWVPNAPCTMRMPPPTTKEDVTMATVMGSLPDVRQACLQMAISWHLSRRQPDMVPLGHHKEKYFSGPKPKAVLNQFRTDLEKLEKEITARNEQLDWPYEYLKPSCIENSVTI

SMILES	Potency	activity change, negative = inhibition
CCOC(=O)c1ccc(NC(=O)CSc2cc(=O)n(CC)c3ccccc23)cc1	inconclusive: 112 µM [inhibitor, partial curve, poor fit]	–
Cc1cccc(CS(=O)(=O)c2ncc(Cl)c(C(=O)Nc3c(C)cccc3C)n2)c1	–	inactive: 5.89%
Cc1ccccc1NC(=O)CSc1nc(-c2ccccc2)cc(=O)[nH]1	inconclusive: 89.1 µM [inhibitor, single point]	–
CCN(CC)CCCN1C(=O)C(O)=C(C(=O)c2cc3ccccc3o2)C1c1ccccn1 (configuration not stated)	inconclusive: 31.6 µM [inhibitor, partial curve, poor fit]	–
O=C(NC(Cc1c[nH]c2ccccc12)C(=O)Nc1ccc(OC(F)(F)F)cc1)c1cccs1 (configuration not stated)	–	inactive: -13.6%
NC(c1ccccc1)c1nnc2n1CCN(C(=O)N1CCCC1)C2 (configuration not stated)	active: 7.94 µM	–
Cc1ccc(Cl)cc1NC(=O)c1oc2ccc(S(=O)(=O)N(C)C3CCCCC3)cc2c1C	–	inactive: -10.1%
CCOC(=O)Cc1csc(NC(=O)CSc2nnc(C3CC3)n2C)n1	inconclusive: 50.1 µM [inhibitor, partial curve, poor fit]	–
Cc1nc(/C=C/C(=O)NCc2ccccn2)cs1	–	inactive: 50%
C=CCn1c(SCc2csc(C)n2)nc2scc(-c3ccc(C)o3)c2c1=O	inconclusive: 11.2 µM [inhibitor, full curve]	–
COc1ccc(N2CC(C(=O)Nc3c(C)nn(C)c3C)CC2=O)c(OC)c1 (configuration not stated)	–	inactive: 5.4%
CNC(=S)N/N=C/c1ccccc1[N+](=O)[O-]	–	inactive: 26.2%
CCC1c2nccn2CCCN1C(=O)Cc1c(C)noc1C (configuration not stated)	–	inactive: 14.9%
Cc1ccc(-c2nc(SCC(=O)N3CCCC3c3ccc4c(c3)OCCCO4)n[nH]2)cc1 (configuration not stated)	inconclusive: 1.26 µM [inhibitor, full curve, poor fit]	–
Brc1ccc(OCCOCCN2CCOCC2)cc1	–	inactive: -22.4%
COc1cc(/C=C2/C(=O)CNC2=O)ccc1O	–	inactive: -27.2%
c1ccc(CN2CCNc3cnc(-c4ccc(N5CCOCC5)cc4)cc3C2)cc1	inconclusive: 44.7 µM [inhibitor, partial curve, poor fit]	–
CCN(CC)C(CNC(=O)/C=C/c1cccs1)c1ccccc1 (configuration not stated)	inconclusive: 50.1 µM [inhibitor, partial curve, poor fit]	–
Cc1cc(Cn2cc3c4c(cccc42)[C@H](CC(C)C)N[C@H](C(=O)NCC2CC2)C3)no1	–	inactive: -1.99% [at 176 µM]
COc1ccc(NC(=S)NCc2ccc(S(N)(=O)=O)cc2)c(OC)c1	inconclusive: 79.4 µM [inhibitor, partial curve, poor fit]	–
CC1CCN(S(=O)(=O)c2cc3c4c(c2)CCN4C(=O)CC3)CC1	inconclusive: 89.1 µM [inhibitor, partial curve, poor fit]	–
Cc1ccc(-c2nc3cnccn3c2Nc2ccc3c(c2)OCO3)cc1	inconclusive: 50.1 µM [inhibitor, partial curve, poor fit]	–
COc1ccc(CNCCNC(=O)c2cccs2)c(OC)c1OC	inconclusive: 35.5 µM [inhibitor, partial curve, poor fit]	–

Not a retest: entries from further up.
SMILES	Potency	activity change, negative = inhibition
COc1ccc(NC(=S)NCc2ccc(S(N)(=O)=O)cc2)c(OC)c1	inconclusive: 79.4 µM [inhibitor, partial curve, poor fit]	–
CC1CCN(S(=O)(=O)c2cc3c4c(c2)CCN4C(=O)CC3)CC1	inconclusive: 89.1 µM [inhibitor, partial curve, poor fit]	–
Cc1ccc(-c2nc3cnccn3c2Nc2ccc3c(c2)OCO3)cc1	inconclusive: 50.1 µM [inhibitor, partial curve, poor fit]	–
COc1ccc(CNCCNC(=O)c2cccs2)c(OC)c1OC	inconclusive: 35.5 µM [inhibitor, partial curve, poor fit]	–

Later entries:

SMILES	Potency	activity change, negative = inhibition
COc1ccc(C2NC(=O)CCC2[N+](=O)[O-])cc1OC (configuration not stated)	inconclusive: 35.5 µM [inhibitor, partial curve, poor fit]	–
Cn1cccc1CN1CCCCC12Cc1ccccc1CNC2=O (configuration not stated)	inconclusive: 44.7 µM [inhibitor, full curve]	–
Cc1nn(C(C)C(=O)N2CCN(c3ccc(Cl)cc3)CC2)c(=O)c2cc3occc3n12 (configuration not stated)	–	inactive: -20.7%
COc1cc2c(cc1NC(=S)Nc1cccc3ccccc13)oc1ccccc12	inconclusive: 39.8 µM [inhibitor, partial curve, poor fit]	–
Cn1c(=O)n(C)c2cc(SCc3ccco3)c(NC(=O)c3ccc(Cl)cc3)cc21	inconclusive: 5.01 µM [inhibitor, full curve, poor fit]	–
CC(C)Cc1ccc(C(=O)/C=C/c2ccc(C(=O)O)cc2)cc1	inconclusive: 1.41 µM [inhibitor, full curve, poor fit]	–
Brc1ccc2nc(-c3ccc(CN4CCC5(CC4)CNc4ccccc45)cc3)c(-c3ccccc3)nc2c1	inconclusive: 35.5 µM [inhibitor, partial curve]	–
Cc1ccc(S(=O)(=O)N2CCC(C(=O)Nc3ccc(C)c(Cl)c3)CC2)cc1	–	inactive: -15.2%
CC(CN1CCCC1)OC(=O)C(c1ccccc1)c1ccccc1 (configuration not stated)	inconclusive: 126 µM [inhibitor, single point]	–
O=C(CC1C(=O)N(c2ccc(Cl)cc2)C(=S)N1CCc1ccncc1)Nc1ccc(F)cc1 (configuration not stated)	inconclusive: 1.26 µM [inhibitor, full curve, poor fit]	–
COc1ccc(OCC(=O)N2CCCC2=O)c([N+](=O)[O-])c1	inconclusive: 44.7 µM [inhibitor, partial curve, poor fit]	–
CC1=CCC(C(=O)O)C(C(=O)Nc2ccc(-c3nc4ccc(C)cc4s3)cc2)C1 (configuration not stated)	inconclusive: 89.1 µM [inhibitor, partial curve, poor fit]	–
O=C(CCCc1nc(-c2ccncc2)no1)N1CCCC2(CCNCC2)CC1	inconclusive: 14.1 µM [inhibitor, full curve]	–
COc1ccnc(NCc2cccc(C(F)(F)F)c2)c1C#N	–	inactive: 9.53% [at 57.4 µM]
Cn1ncc(Cl)c1C(=O)N1CCN(c2ccccc2)CC1	inconclusive: 3.55 µM [inhibitor, full curve, poor fit]	–
COc1ccc(OC)c(C2C(C(C)=O)=C(O)C(=O)N2CCC(=O)O)c1 (configuration not stated)	inconclusive: 15.8 µM [inhibitor, partial curve, poor fit]	–
COc1ccc(-c2oc3ccc(N4CCOCC4)cc3c2C#CCO)cc1	inconclusive: 56.2 µM [inhibitor, partial curve, poor fit]	–
C=CCN(c1nc(C)c(Br)c(OC)n1)S(=O)(=O)c1ccc(C)cc1	inconclusive: 15.8 µM [inhibitor, full curve]	–
CN(CC(=O)Nc1cccc(F)c1)C(=O)c1ccc(N2CCCCC2)c([N+](=O)[O-])c1	–	inactive: -21.1%
Cc1cn2c(=O)cc(COC(=O)c3cccc(NC(=O)c4ccccc4C)c3)nc2s1	inconclusive: 89.1 µM [inhibitor, partial curve, poor fit]	–
CCOc1ccc(OCCN2CCCCC2)cc1	–	inactive: -21.5%
CC(=O)c1cccc(NC(=O)N(c2ccccc2)c2ccccc2)c1	inconclusive: 31.6 µM [inhibitor, partial curve, poor fit]	–
CCOC(=O)c1cc(OC(=O)c2ccccc2C)n(-c2ccccc2)n1	inconclusive: 56.2 µM [inhibitor, partial curve, poor fit]	–

SMILES	Potency	activity change, negative = inhibition
CN(CC(=O)NCCc1ccc(S(N)(=O)=O)cc1)CC(=O)Nc1ccc(Cl)c(C(F)(F)F)c1	inconclusive: 79.4 µM [inhibitor, single point]	–
CCCCn1nnc(NC(=O)c2ccc(-c3ccccc3[N+](=O)[O-])o2)n1	–	inactive: -3.66%
CCCNc1nc(-c2cccc(Cl)c2)cs1	inconclusive: 89.1 µM [inhibitor, partial curve, poor fit]	–
CCN1CCN(CCNC(=O)c2ccc3c(c2)N(Cc2ccc(F)cc2)C(=O)/C(=C/c2ccccc2)S3)CC1	–	inactive: 24.2%
O=C(Cc1cccs1)OCC(=O)c1ccco1	–	inactive: 11.6%
Cc1nn(CC(=O)Nc2ccc(C(C)C)cc2)c(=O)c2cccn12	–	inactive: -4.06%
CC(C)(c1ccc(O)cc1)c1ccc(O)cc1	inconclusive: 50.1 µM [inhibitor, partial curve, poor fit]	–
Cc1nc2cc(-c3cccc(F)c3)nn2c(C)c1CCC(=O)NC1CCN(Cc2ccccc2)CC1	inconclusive: 100 µM [inhibitor, single point]	–
Cc1cc(C)c(S(=O)(=O)Nc2ccc(O)c(Sc3ncn[nH]3)c2)c(C)c1	inconclusive: 100 µM [inhibitor, partial curve, poor fit]	–
CCCCCCCCNS(=O)(=O)CCNCc1ccc(OC)cc1	inconclusive: 0.282 µM [inhibitor, full curve, poor fit]	–
CCc1ccc(/C=C/C(=O)c2cc3cccc(OC)c3oc2=O)cc1	inconclusive: 44.7 µM [inhibitor, single point]	–
O=C(O)c1ccc(-c2nnc(-c3ccccc3)o2)cc1	inconclusive: 100 µM [inhibitor, single point]	–
CC1OC(C2CCCCC2)Cc2[nH]c(=S)[nH]c(=O)c21 (configuration not stated)	inconclusive: 44.7 µM [inhibitor, partial curve, poor fit]	–
CC(=O)c1cnc(-c2ccccc2Cl)s1	–	inactive: -7.94%
COC(=O)c1cc(C)nc2c1c(=O)n(CC(=O)NC1CCCCC1)c(=O)n2-c1ccccc1OC	inconclusive: 126 µM [inhibitor, single point]	–
CCc1ccc(C(=O)Nc2cccc(-c3nnc4n3CCCC4)c2)cc1	–	inactive: 35.1%
O=C(c1nc2nc(-c3cccs3)cc(C(F)(F)F)n2n1)N1CCC2(CC1)OCCO2	–	inactive: 4.01%
CCCCCCCCCCCCCCCC[N+](C)(C)CCl	inconclusive: 39.8 µM [inhibitor, partial curve, poor fit]	–
CCOC(=O)C1=C(N)Oc2ccc3ccccc3c2C1c1ccc(O)cc1 (configuration not stated)	inconclusive: 112 µM [inhibitor, single point]	–
Cc1ccc(NC(=O)Cn2ncc(Cl)c(Cl)c2=O)cc1S(=O)(=O)N1CCCCC1	–	inactive: 99.9%
Fc1ccc2nc(-c3ccc(CN4CCC(c5nc6ccccc6[nH]5)CC4)cc3)c(-c3ccccc3)nc2c1	inconclusive: 79.4 µM [inhibitor, partial curve, poor fit]	–

Source: PubChem BioAssay AID1671190 (National Center for Advancing Translational Sciences (NCATS), 2021)
